SMILES strings stand for the structures. The list shows only some results of the screen, not a fair sample: it gathers tests that were run many times, whatever their T/C, doses with no T/C, and many T/C values between a quarter and a half above the control. Further doses and runs are listed elsewhere. T/C gives the treated animals as a percentage of the vehicle group. Some doses have a count of surviving animals in place of a T/C: the source holds a T/C of zero for them, seemingly a mark for toxic or unscored doses. Some survivor counts are full or nearly so, which does not show that the dose was tolerated: survival well below the control is almost never listed, so the zero probably covers shortened survival too. Survivors were counted at the toxicity check, usually on the fifth day, unless a day is given; later deaths do not show. Schedule codes are those of the source, taken here to give the interval after Q, in days (D) or hours (H), and the number of doses after X. Some entries were tested several times; their values stand side by side, smallest first. Where survival is the endpoint, this PubChem deposit counts one and a half times the control or more as active, and values a quarter to a half above the control carry no call in these data; other NCI protocols may use other cut-offs. Some T/C values are followed by the survivors on the day toxicity was checked, most often the fifth; where none is given, no animal had died by that day.

The test system of the experiment is BDF1 mice, P388 leukemia ip, median survival T/C. Nature of the experiment: NCI In Vivo Anticancer Drug Screen. Data for tumor model P388 Leukemia (intraperitoneal) in B6D2F1 (BDF1) mice. The settings on record: T/C endpoint: median survival time, higher T/C = longer survival. In short, it runs like this:
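Read-out is survival of treated animals expressed relative to the vehicle group, as a T/C ratio.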

Where [1] appears, read: dose: 400.0 mg/kg/injection, schedule: Q01DX009 (ip), vehicle: saline with Tween-80.
Setting [2] is: dose: 200.0 mg/kg/injection, schedule: Q01DX009 (ip), vehicle: saline with Tween-80.
Where [3] appears, read: dose: 200.0 mg/kg/injection, schedule: Q01DX009 (ip), vehicle: saline.
Where [4] appears, read: dose: 25.0 mg/kg/injection, schedule: Q04DX003 (ip), vehicle: saline.
Setting [5] is: dose: 50.0 mg/kg/injection, schedule: Q01DX009 (ip), vehicle: Klucel (hydroxypropylcellulose) (HPC).
[6] abbreviates: dose: 50.0 mg/kg/injection, schedule: Q01DX009 (ip), vehicle: saline with Tween-80.
Where [7] appears, read: dose: 100.0 mg/kg/injection, schedule: Q01DX009 (ip), vehicle: saline with Tween-80.
Setting [8] is: dose: 100.0 mg/kg/injection, schedule: Q04DX003 (ip), vehicle: saline.

On to `Nc1nc(=O)n(CC(=O)c2cccs2)cc1F`, for which the survivor count under setting [1] is 0 of 6 and the survivor count (dose: 400.0 mg/kg/injection, schedule: Q04DX003 (ip), vehicle: saline with Tween-80) is 0 of 6.

In the case of `FC(F)(F)C(F)(F)c1nc2nc(Cl)c(Cl)nc2[nH]1`, under “dose: 100.0 mg/kg/injection, schedule: Q01DX009 (ip), vehicle: other”, the survivor count is listed as 4 of 6.

Take `O=C(CS)CS`: for the setting “dose: 100.0 mg/kg/injection, schedule: Q01DX009 (ip), vehicle: water”, the survivor count is given as 0 of 6.

For `CC(=O)Oc1c(Cl)c(Cl)c(C#N)c(Cl)c1C#N`, the survivor count under setting [2] was 0 of 6.

Regarding `CC1=CP(=O)(O)CC1`, the survivor count under setting [3] is 1 of 6.

With `CC1CC(N)=NC1C(=O)NCCC#N` (stereo not given), the survivor count under setting [2] was 6 of 6.

Regarding `CN1CCN(c2ccc([N+](=O)[O-])c3no[n+]([O-])c23)CC1`, where the note is “dose: 5.0 mg/kg/injection, schedule: Q01DX009 (ip), vehicle: saline with Tween-80”, the T/C is 149 % of control [6 of 7 alive].

Regarding `CN(C)CNc1ncnc2onc(-c3ccccc3)c12`, the survivor count (dose: 200.0 mg/kg/injection, schedule: Q01DX009 (ip), vehicle: other) was 3 of 6.

Turning to `CCCCCCCCNC12CC3CC(CC(C3)C1)C2`, the survivor count by setting is: under setting [4], 6 of 6; (dose: 200.0 mg/kg/injection, schedule: Q04DX003 (ip), vehicle: saline) 0 of 6; (dose: 400.0 mg/kg/injection, schedule: Q04DX003 (ip), vehicle: saline) 0 of 6.

In the case of `O=[N+]([O-])c1ccc(N=Nc2c(Cl)cc(O)cc2Cl)cc1`, the survivor count (dose: 25.0 mg/kg/injection, schedule: Q01DX009 (ip), vehicle: saline with Tween-80) is 5 of 6; the survivor count under setting [6] is given as 6 of 6; the survivor count under setting [7] is given as 5 of 6; the survivor count under setting [2] was 0 of 6; the survivor count under setting [1] is given as 0 of 6. Further, under setting [5], the T/C is 135 % of control.

Regarding `O=C(O)CS(=O)(=O)c1ccccc1`, the survivor count (dose: 25.0 mg/kg/injection, schedule: Q01DX001 (ip), vehicle: other) is recorded as 6 of 6.

`O=C(Nc1ccc(Cl)c(Cl)c1)Nc1c(Oc2ccc(Cl)c(Cl)c2)ccc(Cl)c1S(=O)(=O)O`: the T/C runs as follows: (dose: 80.0 mg/kg/injection, schedule: Q01DX009 (ip), vehicle: saline) 131 % of control; (dose: 120.0 mg/kg/injection, schedule: Q01DX009 (ip), vehicle: saline) 127 % of control [5 of 6 alive].

Take `COc1ccc(OC)c(NC(=O)Sc2c(Cl)c(Cl)nc(Cl)c2Cl)c1`: the T/C under setting [5] was 129 % of control.

For the molecule `Cc1ccc(C(SCC(N)C(=O)O)(c2ccccc2)c2ccc(C)cc2)cc1` (stereo not given), the survivor count was 6 of 6 under setting [2] and 5 of 6 (dose: 300.0 mg/kg/injection, schedule: Q04DX003 (ip), vehicle: saline with Tween-80).

On to `CCC[CH2][Sn]1([CH2]CCC)[O]OC(c2ccccc2)[O]1` (stereo not given), for which the T/C is, setting by setting: (dose: 2.0 mg/kg/injection, schedule: Q01DX009 (ip), vehicle: saline with Tween-80) 142 % of control; (dose: 6.0 mg/kg/injection, schedule: Q01DX009 (ip), vehicle: saline with Tween-80) 140 % of control. The survivor count (dose: 3.3 mg/kg/injection, schedule: Q01DX009 (ip), vehicle: other) was 5 of 6; the survivor count (dose: 5.0 mg/kg/injection, schedule: Q01DX009 (ip), vehicle: other) is given as 5 of 6; the survivor count (dose: 5.0 mg/kg/injection, schedule: Q04DX003 (ip), vehicle: other) is on record as 2 of 6; the survivor count (dose: 7.5 mg/kg/injection, schedule: Q01DX009 (ip), vehicle: other) was 0 of 6; the survivor count (dose: 10.0 mg/kg/injection, schedule: Q04DX003 (ip), vehicle: other) is reported as 0 of 6; the survivor count (dose: 20.0 mg/kg/injection, schedule: Q01DX009 (ip), vehicle: saline with Tween-80) is listed as 1 of 6.

As to `COc1cc(Nc2c3ccccc3nc3ccccc23)cc(OC)c1OC`, under setting [6], the T/C was 130 % of control. The survivor count was 1 of 6 and 4 of 6 under setting [7]; 1 of 6 under setting [2].

Turning to `Cc1c(C)c2c(N)c3ccccc3nc2c2ccccc12`, the T/C (dose: 50.0 mg/kg/injection, schedule: Q01DX001 (ip), vehicle: saline with Tween-80) was 131 % of control. For the same molecule, the survivor count (dose: 100.0 mg/kg/injection, schedule: Q01DX001 (ip), vehicle: saline with Tween-80) is 0 of 6 and 3 of 6.

In the case of `COC(=O)C1=COC(C)C(C=O)C1CC(=O)O` (stereo not given), the T/C (dose: 14.5 mg/kg/injection, schedule: Q04DX003 (ip), vehicle: saline) is 131 % of control; the T/C (dose: 22.0 mg/kg/injection, schedule: Q04DX003 (ip), vehicle: saline) was 133 % of control; the T/C under setting [4] was 138 % of control; the T/C (dose: 33.0 mg/kg/injection, schedule: Q04DX003 (ip), vehicle: saline) is 131 % of control; the T/C (dose: 50.0 mg/kg/injection, schedule: Q04DX003 (ip), vehicle: saline) was 125 % of control; the T/C under setting [8] is 138 % of control.

Regarding `CC1(C)O[C@@H]2C[C@H]3[C@@H]4CCC5=CC(=O)CC[C@]5(C)[C@@]4(F)[C@@H](O)C[C@]3(C)[C@]2(C(=O)CO)O1`, the survivor count is 6 of 6 under setting [7], 6 of 6 under setting [2] and 5 of 6 under setting [1].

Take `Cc1ccc2c3csc4ccccc4c-3nc2c1`: the T/C (dose: 8.2 mg/kg/injection, schedule: Q01DX009 (ip), vehicle: saline) was 136 % of control.

Take `O=C(/C=C/c1ccncc1)c1cccc2ccccc12`: the survivor count under setting [3] is 4 of 6.

With `COc1cc2c(cc1OC)C(CCN1C(=O)c3ccccc3C1=O)=NCC2`, the survivor count is, setting by setting: (dose: 50.0 mg/kg/injection, schedule: Q01DX009 (ip), vehicle: saline) 6 of 6; under setting [8], 2 of 6.

On to `Cc1ccc(S(=O)(=O)N/N=C/C(O)CO)cc1` (stereo not given), for which the survivor count (dose: 25.0 mg/kg/injection, schedule: Q01DX009 (ip), vehicle: other) was 6 of 6.

With `SCc1ccccn1`, for the setting “dose: 500.0 mg/kg/injection, schedule: Q01DX010 (ip), vehicle: carboxymethylcellulose (CMC)”, the survivor count was 0 of 6.

With `CC(=O)c1ccccc1-n1c(C)ccc1C`, the T/C (dose: 400.0 mg/kg/injection, schedule: Q01DX009 (ip), vehicle: saline + alcohol) is 134 % of control.

For `COc1ccc(OC)c(/C=C/[N+](=O)[O-])c1`, the T/C is, setting by setting: under setting [5], 133 % of control; (dose: 100.0 mg/kg/injection, schedule: Q01DX009 (ip), vehicle: Klucel (hydroxypropylcellulose) (HPC)) 130 % of control.

Source of the values: PubChem BioAssay AID328 (DTP/NCI, 2004).
